Measured values taken from paper PMC6803390.
No constants are given. Whether binding was seen depends on the method and setting. In cells and extracts the contact can be indirect. Here binding means that the protein was enriched with, or labelled near, the bait; the list need not be complete.

Protein sequences, listed by entry. Tags and fused reporters are not part of them. Residues count along the entry.
UniProt Q99JI6: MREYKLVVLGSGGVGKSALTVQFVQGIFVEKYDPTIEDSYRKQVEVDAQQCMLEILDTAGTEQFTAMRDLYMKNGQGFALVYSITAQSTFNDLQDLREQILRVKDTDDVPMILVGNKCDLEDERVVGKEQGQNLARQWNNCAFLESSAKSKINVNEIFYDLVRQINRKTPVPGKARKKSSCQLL
UniProt Q60631: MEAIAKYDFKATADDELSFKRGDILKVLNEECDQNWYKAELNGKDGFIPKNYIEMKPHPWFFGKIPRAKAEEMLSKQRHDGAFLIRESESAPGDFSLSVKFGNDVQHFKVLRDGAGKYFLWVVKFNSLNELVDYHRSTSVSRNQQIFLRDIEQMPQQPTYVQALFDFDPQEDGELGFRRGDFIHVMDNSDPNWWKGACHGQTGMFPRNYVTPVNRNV
UniProt Q8C0T5: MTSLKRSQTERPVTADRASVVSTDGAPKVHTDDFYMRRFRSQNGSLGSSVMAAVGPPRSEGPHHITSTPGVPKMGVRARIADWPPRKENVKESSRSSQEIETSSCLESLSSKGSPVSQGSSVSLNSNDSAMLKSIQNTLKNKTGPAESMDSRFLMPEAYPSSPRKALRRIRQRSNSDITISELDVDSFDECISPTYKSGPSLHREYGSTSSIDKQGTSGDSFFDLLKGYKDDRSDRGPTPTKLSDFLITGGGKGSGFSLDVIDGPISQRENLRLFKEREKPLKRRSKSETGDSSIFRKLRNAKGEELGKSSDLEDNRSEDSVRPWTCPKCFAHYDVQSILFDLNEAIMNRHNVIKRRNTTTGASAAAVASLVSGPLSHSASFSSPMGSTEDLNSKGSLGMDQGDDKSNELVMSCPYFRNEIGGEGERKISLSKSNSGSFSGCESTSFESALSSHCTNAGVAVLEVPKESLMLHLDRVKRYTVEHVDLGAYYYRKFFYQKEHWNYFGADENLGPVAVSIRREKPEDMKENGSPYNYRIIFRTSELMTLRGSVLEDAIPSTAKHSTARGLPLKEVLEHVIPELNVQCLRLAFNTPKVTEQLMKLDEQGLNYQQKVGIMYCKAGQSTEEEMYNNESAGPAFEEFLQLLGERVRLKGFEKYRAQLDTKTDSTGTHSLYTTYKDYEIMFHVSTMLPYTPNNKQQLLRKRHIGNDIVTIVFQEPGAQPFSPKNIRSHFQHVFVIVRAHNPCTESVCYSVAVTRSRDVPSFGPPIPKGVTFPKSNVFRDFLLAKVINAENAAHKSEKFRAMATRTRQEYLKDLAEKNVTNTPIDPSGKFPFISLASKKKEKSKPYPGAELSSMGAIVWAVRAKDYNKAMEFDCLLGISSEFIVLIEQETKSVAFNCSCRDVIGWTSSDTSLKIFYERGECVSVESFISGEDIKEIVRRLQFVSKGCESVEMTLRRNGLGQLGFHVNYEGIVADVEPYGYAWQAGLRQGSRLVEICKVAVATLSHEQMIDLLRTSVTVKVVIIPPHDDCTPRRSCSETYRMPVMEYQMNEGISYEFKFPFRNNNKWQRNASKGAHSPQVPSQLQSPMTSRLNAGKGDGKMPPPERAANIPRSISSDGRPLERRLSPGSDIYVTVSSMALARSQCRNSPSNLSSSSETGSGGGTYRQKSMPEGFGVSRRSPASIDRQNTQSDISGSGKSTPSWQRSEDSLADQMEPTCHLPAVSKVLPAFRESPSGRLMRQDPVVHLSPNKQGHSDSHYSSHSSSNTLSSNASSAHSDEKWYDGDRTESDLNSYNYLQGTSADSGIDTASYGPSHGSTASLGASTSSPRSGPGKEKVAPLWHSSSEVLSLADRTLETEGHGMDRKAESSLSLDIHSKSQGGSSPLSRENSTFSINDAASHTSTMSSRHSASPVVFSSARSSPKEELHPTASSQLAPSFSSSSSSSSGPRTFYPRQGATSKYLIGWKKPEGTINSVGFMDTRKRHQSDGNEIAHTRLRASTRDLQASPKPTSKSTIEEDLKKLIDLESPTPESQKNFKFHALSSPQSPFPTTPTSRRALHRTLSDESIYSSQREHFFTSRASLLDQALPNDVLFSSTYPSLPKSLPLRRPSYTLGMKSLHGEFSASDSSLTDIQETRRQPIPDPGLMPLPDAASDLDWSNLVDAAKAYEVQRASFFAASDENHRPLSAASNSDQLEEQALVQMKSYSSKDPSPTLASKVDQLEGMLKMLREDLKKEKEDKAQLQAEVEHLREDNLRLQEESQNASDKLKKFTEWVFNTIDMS
UniProt P20029, residues 20-655: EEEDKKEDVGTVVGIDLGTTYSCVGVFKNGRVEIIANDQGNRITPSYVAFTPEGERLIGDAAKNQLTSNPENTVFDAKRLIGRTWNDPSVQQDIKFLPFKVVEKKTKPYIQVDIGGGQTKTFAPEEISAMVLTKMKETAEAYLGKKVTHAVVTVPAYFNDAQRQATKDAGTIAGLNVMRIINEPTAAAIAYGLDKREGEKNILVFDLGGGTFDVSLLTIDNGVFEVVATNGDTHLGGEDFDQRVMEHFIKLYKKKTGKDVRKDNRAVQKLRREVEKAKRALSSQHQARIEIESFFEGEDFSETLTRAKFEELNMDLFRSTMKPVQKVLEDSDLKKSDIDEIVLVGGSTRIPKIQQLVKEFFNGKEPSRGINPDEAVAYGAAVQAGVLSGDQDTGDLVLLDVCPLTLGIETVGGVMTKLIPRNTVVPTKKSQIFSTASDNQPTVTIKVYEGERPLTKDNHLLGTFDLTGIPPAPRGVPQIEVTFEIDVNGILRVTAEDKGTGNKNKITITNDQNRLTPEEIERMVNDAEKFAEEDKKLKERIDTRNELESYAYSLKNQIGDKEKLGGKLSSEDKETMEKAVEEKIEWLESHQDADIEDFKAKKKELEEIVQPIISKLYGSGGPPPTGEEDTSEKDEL
UniProt P60766: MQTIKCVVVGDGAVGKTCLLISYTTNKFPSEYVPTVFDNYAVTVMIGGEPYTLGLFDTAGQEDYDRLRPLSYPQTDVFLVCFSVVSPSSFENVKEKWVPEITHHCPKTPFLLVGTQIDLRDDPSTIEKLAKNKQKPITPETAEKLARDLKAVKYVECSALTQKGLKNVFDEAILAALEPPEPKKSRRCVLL
UniProt Q9JKF1: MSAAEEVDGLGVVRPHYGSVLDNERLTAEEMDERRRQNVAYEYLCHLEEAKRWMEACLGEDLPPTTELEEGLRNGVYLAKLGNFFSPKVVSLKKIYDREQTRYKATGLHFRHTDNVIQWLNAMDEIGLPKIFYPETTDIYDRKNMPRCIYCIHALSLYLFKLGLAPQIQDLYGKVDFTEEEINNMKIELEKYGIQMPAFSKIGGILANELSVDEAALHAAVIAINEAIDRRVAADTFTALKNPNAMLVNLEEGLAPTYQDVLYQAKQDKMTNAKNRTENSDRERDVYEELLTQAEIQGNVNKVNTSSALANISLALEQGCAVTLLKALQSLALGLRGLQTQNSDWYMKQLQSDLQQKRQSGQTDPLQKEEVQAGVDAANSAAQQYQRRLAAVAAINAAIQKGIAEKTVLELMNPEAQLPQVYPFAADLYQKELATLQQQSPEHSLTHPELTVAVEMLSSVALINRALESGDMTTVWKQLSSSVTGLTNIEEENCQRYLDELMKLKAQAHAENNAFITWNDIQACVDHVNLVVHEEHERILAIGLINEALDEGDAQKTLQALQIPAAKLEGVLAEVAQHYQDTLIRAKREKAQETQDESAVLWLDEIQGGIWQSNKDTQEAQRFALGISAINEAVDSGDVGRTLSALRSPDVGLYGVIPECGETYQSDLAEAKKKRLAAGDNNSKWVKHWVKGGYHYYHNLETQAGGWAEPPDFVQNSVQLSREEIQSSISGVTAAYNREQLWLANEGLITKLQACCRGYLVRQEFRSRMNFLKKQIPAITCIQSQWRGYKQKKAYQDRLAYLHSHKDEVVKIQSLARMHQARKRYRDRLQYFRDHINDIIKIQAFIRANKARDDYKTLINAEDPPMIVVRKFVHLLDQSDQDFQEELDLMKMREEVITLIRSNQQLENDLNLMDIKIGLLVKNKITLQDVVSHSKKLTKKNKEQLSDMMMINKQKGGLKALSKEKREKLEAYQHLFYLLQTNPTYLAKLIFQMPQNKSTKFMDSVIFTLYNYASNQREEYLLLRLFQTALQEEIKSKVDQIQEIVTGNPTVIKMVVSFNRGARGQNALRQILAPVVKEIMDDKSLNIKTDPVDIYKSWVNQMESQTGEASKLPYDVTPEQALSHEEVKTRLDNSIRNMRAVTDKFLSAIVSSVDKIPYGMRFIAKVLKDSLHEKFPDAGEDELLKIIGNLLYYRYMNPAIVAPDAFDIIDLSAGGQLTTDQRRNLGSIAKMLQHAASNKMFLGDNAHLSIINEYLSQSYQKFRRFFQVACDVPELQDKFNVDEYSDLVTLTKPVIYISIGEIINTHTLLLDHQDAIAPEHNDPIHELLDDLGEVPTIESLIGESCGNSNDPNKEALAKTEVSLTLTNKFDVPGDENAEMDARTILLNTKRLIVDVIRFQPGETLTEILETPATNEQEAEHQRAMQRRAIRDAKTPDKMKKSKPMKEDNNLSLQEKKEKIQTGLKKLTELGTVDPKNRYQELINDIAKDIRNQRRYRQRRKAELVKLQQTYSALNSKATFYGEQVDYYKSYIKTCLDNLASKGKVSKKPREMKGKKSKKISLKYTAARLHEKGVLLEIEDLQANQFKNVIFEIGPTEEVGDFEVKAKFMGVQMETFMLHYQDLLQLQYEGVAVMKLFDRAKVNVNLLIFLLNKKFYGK
UniProt Q02248: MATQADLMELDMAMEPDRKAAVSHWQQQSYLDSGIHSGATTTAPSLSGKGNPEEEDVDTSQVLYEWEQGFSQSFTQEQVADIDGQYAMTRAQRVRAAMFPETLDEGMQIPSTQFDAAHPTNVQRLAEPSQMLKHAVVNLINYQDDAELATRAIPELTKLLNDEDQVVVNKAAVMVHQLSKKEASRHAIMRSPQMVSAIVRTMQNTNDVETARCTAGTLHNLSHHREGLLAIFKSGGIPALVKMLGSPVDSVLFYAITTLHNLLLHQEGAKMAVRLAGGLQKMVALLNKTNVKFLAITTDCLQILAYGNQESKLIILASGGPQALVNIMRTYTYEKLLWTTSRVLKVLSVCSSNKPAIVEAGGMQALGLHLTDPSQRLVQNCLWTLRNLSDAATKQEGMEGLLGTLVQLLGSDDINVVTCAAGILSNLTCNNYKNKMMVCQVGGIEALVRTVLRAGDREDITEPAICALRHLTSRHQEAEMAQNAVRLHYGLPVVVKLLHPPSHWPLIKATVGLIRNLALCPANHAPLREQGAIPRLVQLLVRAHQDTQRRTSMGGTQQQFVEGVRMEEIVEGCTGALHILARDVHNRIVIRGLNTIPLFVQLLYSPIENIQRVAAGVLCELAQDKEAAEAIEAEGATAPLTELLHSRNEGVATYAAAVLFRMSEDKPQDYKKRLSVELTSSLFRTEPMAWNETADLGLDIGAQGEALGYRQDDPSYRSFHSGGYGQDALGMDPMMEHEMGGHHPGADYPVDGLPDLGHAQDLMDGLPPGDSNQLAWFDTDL
UniProt P09803, residues 157-884: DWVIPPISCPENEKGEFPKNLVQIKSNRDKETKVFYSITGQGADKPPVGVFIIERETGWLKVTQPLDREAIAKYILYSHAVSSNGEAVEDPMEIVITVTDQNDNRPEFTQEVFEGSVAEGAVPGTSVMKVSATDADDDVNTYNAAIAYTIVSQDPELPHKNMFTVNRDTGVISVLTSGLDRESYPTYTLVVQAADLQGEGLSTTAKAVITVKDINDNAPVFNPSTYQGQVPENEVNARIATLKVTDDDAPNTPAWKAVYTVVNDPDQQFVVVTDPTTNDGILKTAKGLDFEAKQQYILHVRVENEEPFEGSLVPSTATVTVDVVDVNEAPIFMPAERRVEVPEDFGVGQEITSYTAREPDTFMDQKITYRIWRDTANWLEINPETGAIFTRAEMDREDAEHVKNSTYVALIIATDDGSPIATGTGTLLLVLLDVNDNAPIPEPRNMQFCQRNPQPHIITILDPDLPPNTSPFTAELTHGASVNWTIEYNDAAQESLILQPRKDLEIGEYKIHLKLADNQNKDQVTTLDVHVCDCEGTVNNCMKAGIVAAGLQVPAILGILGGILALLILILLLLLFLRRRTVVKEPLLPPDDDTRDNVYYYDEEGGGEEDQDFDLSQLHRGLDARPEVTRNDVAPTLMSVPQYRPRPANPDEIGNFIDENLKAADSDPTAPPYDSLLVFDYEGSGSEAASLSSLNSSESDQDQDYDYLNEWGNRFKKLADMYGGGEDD
UniProt Q60737: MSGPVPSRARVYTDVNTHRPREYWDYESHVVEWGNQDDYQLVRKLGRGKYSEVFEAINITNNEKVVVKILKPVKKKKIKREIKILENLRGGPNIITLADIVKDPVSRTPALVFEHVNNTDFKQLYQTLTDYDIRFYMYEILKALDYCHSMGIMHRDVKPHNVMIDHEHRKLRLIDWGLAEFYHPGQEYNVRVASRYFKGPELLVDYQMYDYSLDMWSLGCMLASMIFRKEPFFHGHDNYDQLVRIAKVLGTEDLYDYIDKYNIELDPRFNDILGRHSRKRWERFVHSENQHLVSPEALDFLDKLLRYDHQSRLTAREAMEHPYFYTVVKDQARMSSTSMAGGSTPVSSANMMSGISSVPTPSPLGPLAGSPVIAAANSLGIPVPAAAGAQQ

T1: p140Cap adaptor protein (UniProt Q9QWI6)
T1 sequence: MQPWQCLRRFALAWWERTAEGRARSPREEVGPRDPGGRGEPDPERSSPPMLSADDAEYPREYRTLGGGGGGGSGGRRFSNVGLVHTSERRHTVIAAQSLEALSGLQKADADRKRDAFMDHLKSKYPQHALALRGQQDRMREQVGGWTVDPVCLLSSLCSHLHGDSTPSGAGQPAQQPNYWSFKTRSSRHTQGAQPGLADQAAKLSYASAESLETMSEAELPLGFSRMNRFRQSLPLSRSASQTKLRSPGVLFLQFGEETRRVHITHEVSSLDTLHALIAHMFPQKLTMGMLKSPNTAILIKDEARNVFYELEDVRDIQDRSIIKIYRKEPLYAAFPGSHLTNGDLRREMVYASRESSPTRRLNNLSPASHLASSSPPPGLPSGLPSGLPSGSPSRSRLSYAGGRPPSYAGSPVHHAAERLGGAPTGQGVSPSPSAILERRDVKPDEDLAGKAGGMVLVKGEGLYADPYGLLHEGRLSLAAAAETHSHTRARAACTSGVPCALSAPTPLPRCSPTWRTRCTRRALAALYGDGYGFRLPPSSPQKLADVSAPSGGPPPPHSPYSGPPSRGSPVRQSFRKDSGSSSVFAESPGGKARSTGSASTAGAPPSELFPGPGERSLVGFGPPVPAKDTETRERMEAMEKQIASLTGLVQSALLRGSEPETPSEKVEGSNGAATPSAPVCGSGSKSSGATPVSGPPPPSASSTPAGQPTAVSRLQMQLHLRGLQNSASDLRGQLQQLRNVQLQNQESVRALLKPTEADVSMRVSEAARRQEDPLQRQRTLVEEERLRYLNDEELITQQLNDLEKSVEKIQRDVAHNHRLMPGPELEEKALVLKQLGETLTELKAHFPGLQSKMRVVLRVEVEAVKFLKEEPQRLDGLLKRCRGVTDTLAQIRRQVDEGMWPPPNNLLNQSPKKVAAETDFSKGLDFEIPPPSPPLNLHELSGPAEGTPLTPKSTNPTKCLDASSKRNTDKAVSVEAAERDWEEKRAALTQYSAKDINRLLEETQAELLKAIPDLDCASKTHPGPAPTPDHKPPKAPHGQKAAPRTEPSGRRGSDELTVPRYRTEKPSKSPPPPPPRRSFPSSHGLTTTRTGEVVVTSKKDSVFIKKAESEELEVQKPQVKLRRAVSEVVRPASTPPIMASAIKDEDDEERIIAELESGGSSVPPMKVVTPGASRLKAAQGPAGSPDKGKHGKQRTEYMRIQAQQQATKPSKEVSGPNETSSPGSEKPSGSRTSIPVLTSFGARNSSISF

B1: Tectonin beta-propeller repeat-containing protein 1 (protein, UniProt Q80VP0 1-1166)
chain: MPTSVLWAVDLFGRVYTLSTAGQYWELCKDVQLEFKRVSAATQCCWGIAGDNQVYLYVCSSDVPIRHREEAYENQRWNPMGGFCEKLLPSDRWPWSDVSGLQHRPLDGVALPSPHWEWESDWYVDENFGGEPTEKGGWTYAMDFPATYTRDKKWNSCVRRRKWIRYRRYKSRDSWAKIPSKDDPKELPDPFNDLSVGGWEITEEPVGRLSVWAVSLQGKVWYREDVSHPNPEGSSWSLVETPGEVVQISCGPHDLIWATLWEGQALVREGVCRNNPKGSYWSMVEPPGSENGIMHVSAGVSVVWAITKDRKVWFRRGVNSHNPCGTSWIEMVGEMTMVNVGLNDQVWGISCEDRAVYFRQGVTPSELSGKTWKAIVVGRESDRSHSGSSSSLLSAGCFFGDEVRGSGTESAPSDTDASLEVERQGPEQPLPKEALDNSTNLKGSLSKGHETSGNTDHSTENACLTEGKEKAPETSRSDECRGPASTPAELPWTNIDLKEPKKVSNQPAAGFPETAGLSSLGLFPMGMEEPYGADDHPLWAWVSGGACAVEAGSTLKWFTIQSGLSPSVQTLSLSITPAQTAAWRKQIFQQLTERTKRELESFRHYEQAVEQSVWVKTGALQWWCDWKPHKWVDVRVALEQFTGHDGARDSILFIYYVVHEEKKYLHVFLNEVTVLVPVLNEAKHSFALYTPERTRQRWPVRLAAATEQDMNDWLALLSLSCCESRKVHGRPSPQAIWSVTCKGDIFVSEPSPDLEARERLLPCDQMFWRQMGGHLRIIEANSRGVVWGIGYDHTAWVYTGGYGGGCFQGLASSTSNIYTQSDVKSVYIYENQRWNPVTGYTSRGLPTDRFMWSDVTGLQECTKAGTKPPSLQWTWVSDWYVDFSVPGGTDQEGWQYASDFPASYHGYKTMKDFVRRRCWARKCKLVTSGPWLEVAPITLSDVSIIPESAHADGRGHNVALWAVSDKGDVLCRLGVSELNPAGSSWLHVGTDQPFASVSIGACYQVWAVARDGSAFYRGSVSPSQPAGDCWYHIPSPPKQKLTQVSVGQTSVYALDENGNLWYRAGITPSYPQGSSWEHVSNNVRKVSVGPLDQVWVIANKVQGSHGLSRGTVCRRMGVQPREPKGQGWDYGIGGGWDHISVRANATRVPRNMSRDREARGPGPVCC
B2: GTPase-activating protein (GAP) RP2 (protein, UniProt Q9EPK2 1-347)
chain: MGCCFTKRRKSEKAEGEEEQPKLYSWDQREKVDPKDYMFSGLKDETVGRLPGKVAGQQFVIQDCENCNIYIFDHSATITIDDCTNCVIFLGPVKGSVFFRNCRDCKCTLACQQFRVRDCRKLEVFLCCATQPIIESSTNIKFGCFQWYYPELAAQFKDAGLSIFNNIWSHVHDFTPVSGELNWSLLPENAVVQDYVPIPMTEEFKAVRISTEANRSIVPVSRGQRQKYSDESCLVVLFADDYTTANARKLIDEMVGKGFSLVQTKEMSMKTEDAQRVFQEKASDFLLLLNKGPVIALEFNGDDAVQECHLIVNGMFNGTKMFVSEKKETASGDVDSFYNFAEIQMGI
B3: FLII (protein, UniProt Q9JJ28 1-1271)
chain: MEATGVLPFVRGVDLSGNDFKGGYFPENVKAMTSLRWLKLNRTGLCYLPEELAALQKLEHLSVSHNHLTTLHGELSSLPSLRAIVARANSLKNSGVPDDIFKLDDLSVLDLSHNQLTECPRELENAKNMLVLNLSHNGIDSIPNQLFINLTDLLYLDLSENRLESLPPQMRRLVHLQTLVLNGNPLLHAQLRQLPAMMALQTLHLRNTQRTQSNLPTSLEGLSNLSDVDLSCNDLTRVPECLYTLPSLRRLNLSSNQIAELSLCIDQWVHLETLNLSRNQLTSLPSAICKLTKLKKLYLNSNKLDFDGLPSGIGKLTSLEEFMAANNNLELIPESLCRCPKLKKLVLNKNRLVTLPEAIHFLTEIQVLDVRENPSLVMPPKPADRTAEWYNIDFSLQNQLRLAGASPATVAAAAAVGSGSKDPLARKMRLRRRKDSAQDVQAKQVLKGMSDVAQEKNKNQEESIDARAPGGKVRRWDQGLEKPRLDYSEFFTEDVGQLPGLTIWQIENFVPVLVEEAFHGKFYEADCYIVLKTFLDDSGSLNWEIYYWIGGEATLDKKACSAIHAVNLRNYLGAECRTVREEMGDESEEFLQVFDNDISYIEGGTASGFYTVEDTHYVTRMYRVYGKKNIKLEPVPLKGSSLDPRFVFLLDQGLDIYVWRGAQATLSNTTKARLFAEKINKNERKGKAEITLLVQGQEPPGFWDVLGGEPSEIKNHVPDDFWPPQPKLYKVGLGLGYLELPQINYKLSVEHKKRPKVELMPGMRLLQSLLDTRCVYILDCWSDVFIWLGRKSPRLVRAAALKLGQELCGMLHRPRHTVVSRSLEGTEAQVFKAKFKNWDDVLTVDYTRNAEAVLQGQGLSGKVKRDTEKTDQMKADLTALFLPRQPPMPLAEAEQLMEEWNEDLDGMEGFVLEGRKFTRLPEEEFGHFYTQDCYVFLCRYWVPVEYEEEEKTEDKEGKASAEAREGEEAAAEAEEKQPEEDFQCIVYFWQGREASNMGWLTFTFSLQKKFESLFPGKLEVVRMTQQQENPKFLSHFKRKFIIHRGKRKVTQGTLQPTLYQIRTNGSALCTRCIQINTDSSLLNSEFCFILKVPFESEDNQGIVYAWVGRASDPDEAKLAEDILNTMFDASYSKQVINEGEEPENFFWVGIGAQKPYDDDAEYMKHTRLFRCSNEKGYFAVTEKCSDFCQDDLADDDIMLLDNGQEVYMWVGTQTSQVEIKLSLKACQVYIQHTRSKEHERPRRLRLVRKGNEQRAFTRCFHAWSTFRQAPA
B4: ADD1 (protein, UniProt Q9QYC0 1-735)
chain: MNGDTRAAVVTSPPPTTAPHKERYFDRVDENNPEYLRERNMAPDLRQDFNMMEQKKRVSMILQSPAFCEELESMIQEQFKKGKNPTGLLALQQIADFMTASVPNVYPAAPQGGMAALNMSLGMVTPVNDLRGSDSIAYDKGEKLLRCKLAAFYRLADLFGWSQLIYNHITTRVNSEQEHFLIVPFGLLYSEVTASSLVKVNLQGDIVDRGSTNLGVNQAGFTLHSAVYAARPDAKCIVHIHTPAGAAVSAMKCGLLPISPEALSLGDVAYHDYHGILVDEEEKILIQKNLGPKSKVLILRNHGLVSVGESVEEAFYYIHNLVVACEIQVRTLASAGGPDNLVLLDPGKYKAKSRSPGTPAGEGSGSPPKWQIGEQEFEALMRMLDNLGYRTGYPYRYPALRERSKKYSDVEVPASVTGHSFASDGDSGTCSPLRHSFQKQQREKTRWLHSGRGDDASEEGQNGSSPKSKTKWTKEDGHRTSTSAVPNLFVPLNTNPKEVQEMRNKIREQNLQDIKTAGPQSQVLCGVMMDRSLVQGELVTASKAIIEKEYQPHVIVSTTGPNPFNTLTDRELEEYRREVERKQKGSEENLDETREQKEKSPPDQSAVPNTPPSTPVKLEEDLPQEPTSRDDSDATTFKPTPPDLSPDEPSEALAFPAVEEEAHASPDPTQPPAEADPEPASAPTPGAEEVASPATEEGSPMDPGSDGSPGKSPSKKKKKFRTPSFLKKSKKKSDS

Biological target: T1, p140Cap adaptor protein
Experiment: affinity purification with mass spectrometry; p140Cap Mab cross-linked to protein G Dynabeads, 9 mg cell extract of p140-TUBO against NeuT-TUBO (mock) cells, lysis buffer 150 mM NaCl, 50 mM Tris pH 7.4, 1% NP-40, 1 mM MgCl2, 5% glycerol, 2 h at 4°C; label-free nanoLC-MS/MS, three experiments

Molecule | binding
B1 | binds
B2 | binds
B3 | binds
B4 | binds

Biological target: T1, p140Cap adaptor protein
Experiment: as above
Remark: another data set of the same source

Molecule | binding
Flotillin (mouse (endogenous in TUBO cells)) | binds
RAP1B (from UniProt Q99JI6 1-184) | binds
RANBP9 (from UniProt P69566 1-653) | binds
GRB2 (from UniProt Q60631 1-217) | binds
Myosin 6 (from UniProt Q64331 1-1262) | binds
DDX3X (from UniProt Q62167 1-662) | binds
CAPZA2 (from UniProt P47754 1-286) | binds
MLLT4 also known as Afadin (from UniProt Q9QZQ1 1-1820) | binds
Actinin B (mouse (endogenous in TUBO cells)) | binds
SIPA1L1 (from UniProt Q8C0T5 1-1782) | binds
HSPA5 (from UniProt P20029 20-655) | binds
CDC42 (from UniProt P60766 1-191) | binds
Ras GTPase-activating-like protein IQGap1 (from UniProt Q9JKF1 1-1657) | binds
ERBB2IP (ERBIN) (from UniProt Q80TH2 1-1402) | binds
Catenin beta-1 (from UniProt Q02248 1-781) | binds
JTJP2 (mouse (endogenous in TUBO cells)) | binds
TNIK (from UniProt P83510 1-1323) (enzyme) | binds
Catenin alpha-1 (from UniProt P26231 1-906) | binds
HNRNPK (from UniProt P61979 1-463) | binds
Cadherin-1 (from UniProt P09803 157-884) | binds
CSNK2A1 (from UniProt Q60737 1-391) (enzyme) | binds
PPFIA1 alias Liprin (mouse (endogenous in TUBO cells)) | binds
Sickle tail protein (from UniProt A2AQ25 1-1946) | binds
